Results of single-concentration screens

Protein sequences, listed by entry. Tags and fused reporters are not part of them. Residues count along the entry.
UniProt Q4DA54, 1-478: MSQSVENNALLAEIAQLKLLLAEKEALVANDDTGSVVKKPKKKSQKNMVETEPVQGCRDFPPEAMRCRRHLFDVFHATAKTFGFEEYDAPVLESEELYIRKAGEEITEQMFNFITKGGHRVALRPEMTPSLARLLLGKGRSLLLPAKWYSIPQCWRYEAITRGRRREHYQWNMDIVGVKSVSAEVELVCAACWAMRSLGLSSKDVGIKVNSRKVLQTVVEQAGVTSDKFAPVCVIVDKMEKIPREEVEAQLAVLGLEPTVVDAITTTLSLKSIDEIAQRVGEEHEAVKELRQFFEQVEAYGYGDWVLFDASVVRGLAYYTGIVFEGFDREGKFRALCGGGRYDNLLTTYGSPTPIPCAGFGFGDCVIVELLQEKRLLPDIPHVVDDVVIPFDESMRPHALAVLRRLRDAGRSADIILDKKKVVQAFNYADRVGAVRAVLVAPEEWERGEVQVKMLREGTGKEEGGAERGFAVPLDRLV

The filed quantity is “Percent Effect” (%). How 0% and 100% were set is not recorded. Most values in the screen are low, and negative values occur. The compounds are a random part of those screened. A dash means the value is not listed here; it may have been measured.

Toxoplasma: 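Assay of Toxoplasma gondii numbers, read through their beta-galactosidase reporter with a colour substrate. Concentration: 10 µM. The record gives no direction; the compounds picked for IC50 retests had high values, so higher reads as fewer parasites. About 67,000 compounds were tested under these conditions; 0.38% (about 260) showed 50% or more at least once.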
TcHisRS: 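Enzyme assay of histidyl-tRNA synthetase; the read-out is not stated. Target: Histidine-tRNA ligase, Trypanosoma cruzi CL Brener (UniProt Q4DA54). Compounds at 30 µM. The record gives no direction; compounds that gave an IC50 in retests scored well above the rest, so higher reads as stronger inhibition. Size under these conditions: about 69,000 compounds, about 31 of them at 50% or above in at least one test.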

| # | structure | Toxoplasma | TcHisRS |
|---|---|---|---|
| 1 | `c1ccc(CN2Cc3[nH]nc(COCC4CC4)c3C2)nc1` | - | 2.151 |
| 2 | `NCCN1CCC(c2nnc(Cn3ccnc3)n2C2CC2)CC1` | -5.293 | 6.818 |
| 3 | `CN(C)CC1(O)CCCN(C(=O)c2cnc(-c3ccccn3)nc2)C1` (stereo unspecified) | -1.063 | 5.056 |
| 4 | `CN(CC(=O)NC(C)(C#N)C1CC1)Cc1nc2ccccc2n1C` (stereo unspecified) | -6.795 | 10.99 |
| 5 | `CCCOC(C)C(=O)N1CCC(O)(c2ccc3nc(C)ccc3c2)CC1` (stereo unspecified) | 6.531 | 2.116 |
| 6 | `CCn1ccnc1CN1CCN(CC(O)Cn2cccn2)CC1` (stereo unspecified) | 12.41 | 0.7634 |
| 7 | `Cc1ccsc1CN1CCn2c(COc3cccnc3)cnc2C1C.O=C(O)C(F)(F)F.O=C(O)C(F)(F)F` (stereo unspecified) | -49.27 | - |
| 8 | `O=C(NCCCO)Nc1cccc(I)c1` | 7.253 | 13.1 |
| 9 | `CC(Cn1cccn1)NCc1nc(-c2ccsc2)no1` (stereo unspecified) | -3.577 | 2.89 |
| 10 | `CN(C)c1nccc(N2CCO[C@H]3CN(Cc4ccsc4)C[C@H]32)n1` | - | 0 |
| 11 | `O=C(O)C(F)(F)F.O=C(O)C(F)(F)F.[H][C@@]12C[C@@H](Oc3cncnc3)CN1CCN(Cc1csc(C)n1)C2` | 7.572 | - |
| 12 | `CNCc1cn(CC2CCN(CC(C)(C)CN3CCCC3)CC2)nn1` | -11.88 | -0.9662 |
| 13 | `COc1ccc(NC(=O)N2CCCC2c2ccco2)c(OC)c1` (stereo unspecified) | 23.72 | 3.96 |
| 14 | `CN(C)c1ccc(CC(=O)N2C[C@H](C3CC3)[C@@H](N)C2)cc1` | 0.9766 | -0.6024 |
| 15 | `CCc1c(C(=O)N2CCCC(N(C)C)C2)cnn1C(C)(C)C` (stereo unspecified) | 20 | 4.571 |
| 16 | `Cc1n[nH]c2ncc(CNC3CCN(Cc4ccccn4)CC3)cc12` | - | -1.02 |
| 17 | `Cn1cc(C(=O)N2CC[C@H](N3CCOCC3)[C@H](CCCO)C2)cn1` | -1.577 | 1.093 |
| 18 | `NC(=O)N1CC[C@H](O)[C@@H]1Cc1cccnc1` | - | 6.077 |
| 19 | `CN(C)CCOc1cccc(CN2CCCC3(C2)CN(C)C(=O)O3)c1` (stereo unspecified) | 9.437 | 9.091 |
| 20 | `Cc1nc(CNC(C)c2cccc(N3CCCC3=O)c2)cs1.Cl` (stereo unspecified) | -3.269 | - |
| 21 | `O=C(NCCCOc1cccnc1)c1cn(CCc2ccccc2)nn1` | -30.69 | 0.8403 |
| 22 | `O=C(O)C(F)(F)F.O=C(O)C(F)(F)F.[H][C@@]12CN(c3ncccn3)C[C@]1([H])[C@@H]2CC(=O)Nc1cccnc1` | 0.08399 | - |
| 23 | `Cc1ccc2cc(CN(C)Cc3ccccn3)c(=O)[nH]c2c1` | -2.59 | 0 |
| 24 | `CCCn1nc(C(=O)NCCc2nnc3n2CCC3)ccc1=O` | 12.81 | -1.02 |
| 25 | `c1ncn(CC2CN(Cc3noc(C4CC4)n3)CCO2)n1` (stereo unspecified) | 5.252 | 4.151 |
| 26 | `CCOc1ccc(CC(CNC(=O)c2occc2C)C(N)=O)cc1` (stereo unspecified) | 7.265 | 1.887 |
| 27 | `O=C(CCc1ccsc1)Nc1cccnc1N1CCCC1` | -9.501 | 2.89 |
| 28 | `Cn1nc(C2CC2)c2c1NC(=O)CC2c1cc(CN2CCCC2)cs1` (stereo unspecified) | 1.556 | 31.94 |
| 29 | `Cc1ccccc1OCCC(=O)N1CCc2nc(C)n(C)c(=O)c2CC1` | -0.1732 | 3.261 |
| 30 | `CN(C)c1ccc(C(=O)N2CCCC2c2cnn(C)c2)nn1` (stereo unspecified) | -3.107 | 5.422 |
| 31 | `Cc1nccn1CCN(C)C(=O)C1CCN(C(=O)C2CCCC2)CC1` | -30.42 | 5.6 |
| 32 | `OCC1(Cc2ccc(Cl)cc2)CCN(Cc2cccnc2)CC1` | -1.813 | 6.522 |
| 33 | `Cc1nccn1[C@@H]1CC[C@@H](NC(=O)CCCn2cncn2)[C@H]1O` | 6.732 | 0.7576 |
| 34 | `CC(C)[C@H]1CN(Cc2c[nH]cn2)C[C@@H]1NC(=O)CC1CCC1` | -3.071 | 1.734 |
| 35 | `CC(C)c1nccn1C1CCCN(C(=O)CCc2cnn(C)c2)C1` (stereo unspecified) | -1.842 | 2.312 |
| 36 | `CC(C)(C)c1noc(-c2nc3c([nH]2)CCCNC3=O)n1` | -6.42 | 3.704 |
| 37 | `CCOCc1cccc(S(=O)(=O)Nc2ccn(CC)n2)c1` | 7.47 | 3.509 |
| 38 | `CC(=O)N1CCN(C(=O)CNc2ccc3ncsc3c2)CC1` | 0.8021 | 10.34 |
| 39 | `Cn1ncc2c1CCCC2NCc1cc(Br)cs1` (stereo unspecified) | - | -0.3774 |
| 40 | `[H][C@@]12CCC(=O)N(CC(C)C)[C@]1([H])CCN(C(=O)CN1CCC(C)=N1)C2` | -19.82 | - |
| 41 | `Cn1c(=O)oc2cc(S(=O)(=O)N3CCCCC3)c(Cl)cc21` | 7.43 | 0.8772 |
| 42 | `[H][C@]12CN(c3ncc(CC)cn3)C[C@@]1([H])S(=O)(=O)CC[C@@H]2C(=O)NC(C)C` | 6.028 | - |

For reference, 2 entries once more:

{"structure": "CCOc1ccc(CC(CNC(=O)c2occc2C)C(N)=O)cc1", "stereo": "stereo unspecified", "Toxoplasma": 7.265, "TcHisRS": 1.887}
{"structure": "Cn1cc(C(=O)N2CC[C@H](N3CCOCC3)[C@H](CCCO)C2)cn1", "Toxoplasma": -1.577, "TcHisRS": 1.093}

Source: ChEMBL document CHEMBL3988442, “University of Dundee, Small-Polar-MMV Screening Library” (2021).